# Patent US8183252B2, “Heterocyclic aspartyl protease inhibitors” (Schering Corporation, priority 2007, dated 2012)
# The chains behind the UniProt entries cited, without tags or fusion partners. Residues count along the entry.
# UniProt P56817, 22-454: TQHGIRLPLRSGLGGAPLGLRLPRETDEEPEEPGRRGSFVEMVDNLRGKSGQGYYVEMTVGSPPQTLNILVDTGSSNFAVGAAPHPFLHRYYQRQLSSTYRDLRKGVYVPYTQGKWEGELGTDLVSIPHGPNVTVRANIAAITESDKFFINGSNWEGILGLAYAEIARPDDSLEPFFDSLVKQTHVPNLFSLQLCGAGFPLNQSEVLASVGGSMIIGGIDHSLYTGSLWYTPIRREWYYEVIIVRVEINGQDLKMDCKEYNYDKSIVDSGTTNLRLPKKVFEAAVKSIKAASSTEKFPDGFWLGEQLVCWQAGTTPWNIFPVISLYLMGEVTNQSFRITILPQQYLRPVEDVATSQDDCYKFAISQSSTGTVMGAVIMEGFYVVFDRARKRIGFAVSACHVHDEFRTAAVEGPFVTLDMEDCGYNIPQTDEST
# pKi: −log10 of the molar value. Some entries share one result that the patent states for a list of compounds. At least one compound was matched to its structure with a doubt left.
# Target: T1, human BACE1 (sproBACE1) (Homo sapiens, UniProt P56817)
# T1 construct: sBACE1, corresponding to amino acids 1-454; made in house; host or cells: Sf9 insect cells (baculovirus), secreted into the medium
# Assay: BACE-1 Peptide Hydrolysis Assay (HTRF)
# Assay type: biochemical
# Description: A HindIII/PmeI fragment from pCDNA4-sBACE1myc/His was blunt ended using Klenow and subcloned into the Stu I site of PFASTBACI(A) (Invitrogen). A sBACE1mycHis recombinant bacmid was generated by transposition in DH10Bac cells (GIBCO/BRL). Subsequently, the sBACE1mycHis bacmid construct was transfected into sf9 cells using CellFectin (Invitrogen, San Diego, Calif.) in order to generate recombinant baculovirus. […] Five milliliters of high titer plaque purified sBACEmyc/His virus was used to infect 1 L of logarithmically growing sf9 cells for 72 hours. Intact cells were pelleted by centrifugation at 3000×g for 15 minutes. The supernatant, containing secreted sBACE1, was collected and diluted 50% v/v with 100 mM HEPES, pH 8.0. The diluted medium was loaded onto a Q-sepharose column. The Q-sepharose column was washed with Buffer A (20 mM HEPES, pH 8.0, 50 mM NaCl).
# Proteins, were eluted from the Q-sepharose column with Buffer B (20 mM HEPES, pH 8.0, 500 mM NaCl). The protein peaks from the Q-sepharose column were pooled and loaded onto a Ni-NTA agarose column. The Ni-NTA column was then washed with Buffer C (20 mM HEPES, pH 8.0, 500 mM NaCl). Bound proteins were then eluted with Buffer D (Buffer C+250 mM imidazole).
# Reactions were initiated by addition of substrate in a 5 μl aliquot resulting in a total volume of 25 μl. […]
compound,measurement,value
CC[C@@]1(c2ccc(-c3cccc(C#N)c3)s2)CC(=O)N(C)C(=N)N1,pKi,> 5.30
